Values from PubChem BioAssay AID1259254 (NCATS, 2017).

Screen: 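Genome-wide screen for genes that prevent DNA re-replication in cancer cells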 (primary screen)
Cells: human HCT116 colorectal cancer cells
Reagents: single siRNA against human genes
Time to read-out: 3 days
Measured: 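Imaged Hoechst DNA stain sorts each cell into a cycle phase by DNA amount; per plate, G2 fraction set to 0% for non-targeting and 100% for GMNN siRNA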
Reading the numbers: G2 robust z-score: higher = more G2 cells, more excess DNA replication
Call rule: 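Active siRNAs have a G2 robust z of 5 or more median absolute deviations over the median, which in these data means about 38% or higher of GMNN control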
The whole screen tested about 59,000 reagents; below is a part drawn at random. About 1,550 of all reagents (2.6%) count as active. 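G2 share is only a proxy for re-replication; each gene was hit by three separate siRNAs, and active genes were retested.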 Reagents against one gene are numbered here. Not all columns of the deposit are shown. The record does not give: the amount of reagent.

EIF3A (eukaryotic translation initiation factor 3 subunit A) #1 | G2 robust z-score = 5.46; activity call = active
EIF3A (eukaryotic translation initiation factor 3 subunit A) #2 | G2 robust z-score = 4.18; activity call = inactive
EIF3A (eukaryotic translation initiation factor 3 subunit A) #3 | G2 robust z-score = 1.82; activity call = inactive
GATD3 (glutamine amidotransferase class 1 domain containing 3) #1 | G2 robust z-score = -0.98; activity call = inactive
GATD3 (glutamine amidotransferase class 1 domain containing 3) #2 | G2 robust z-score = 0.501; activity call = inactive
GATD3 (glutamine amidotransferase class 1 domain containing 3) #3 | G2 robust z-score = -0.0556; activity call = inactive
DIRC3 (disrupted in renal carcinoma 3) #1 | G2 robust z-score = 0.263; activity call = inactive
DIRC3 (disrupted in renal carcinoma 3) #2 | G2 robust z-score = 2.32; activity call = inactive
DIRC3 (disrupted in renal carcinoma 3) #3 | G2 robust z-score = 0.984; activity call = inactive
EIF1 (eukaryotic translation initiation factor 1) #1 | G2 robust z-score = 0.111; activity call = inactive
EIF1 (eukaryotic translation initiation factor 1) #2 | G2 robust z-score = -0.609; activity call = inactive
EIF1 (eukaryotic translation initiation factor 1) #3 | G2 robust z-score = -0.493; activity call = inactive
NPM1P39 (nucleophosmin 1 pseudogene 39) #1 | G2 robust z-score = -0.526; activity call = inactive
NPM1P39 (nucleophosmin 1 pseudogene 39) #2 | G2 robust z-score = -0.351; activity call = inactive
NPM1P39 (nucleophosmin 1 pseudogene 39) #3 | G2 robust z-score = 0.278; activity call = inactive
ARHGEF40 (Rho guanine nucleotide exchange factor 40) #1 | G2 robust z-score = -0.168; activity call = inactive
ARHGEF40 (Rho guanine nucleotide exchange factor 40) #2 | G2 robust z-score = -0.51; activity call = inactive
ARHGEF40 (Rho guanine nucleotide exchange factor 40) #3 | G2 robust z-score = -0.456; activity call = inactive
GAR1 (GAR1 ribonucleoprotein) #1 | G2 robust z-score = 3.77; activity call = inactive
GAR1 (GAR1 ribonucleoprotein) #2 | G2 robust z-score = 1.2; activity call = inactive
GAR1 (GAR1 ribonucleoprotein) #3 | G2 robust z-score = -0.157; activity call = inactive
SCAF8 (SR-related CTD associated factor 8) #1 | G2 robust z-score = 1.61; activity call = inactive
SCAF8 (SR-related CTD associated factor 8) #2 | G2 robust z-score = -1.56; activity call = inactive
SCAF8 (SR-related CTD associated factor 8) #3 | G2 robust z-score = 0.0135; activity call = inactive

A few values from the list:
Under “activity call”, NPM1P39 (nucleophosmin 1 pseudogene 39) #1 shows inactive
Value of EIF1 (eukaryotic translation initiation factor 1) #3 in “G2 robust z-score”: -0.493
